# From US11179395B2, “Treating melanoma with mebendazole and a mitogen-activated kinase inhibitor” (GEORGETOWN UNIVERSITY, priority 2017, dated 2021)
# For some of these results: At least one compound was matched to its structure with a doubt left. Some entries share one result that the patent states for a list of compounds.
# Experiments:
# [1] = system: BAK, BUL and STU melanoma cells; test: XTT cell viability assay, all three melanoma cell lines; assay type: cell-based, Human; settings: 72 h, 2-way ANOVA
# Experimental: FIGS. 2A-2C show decreased viability of melanoma cells exposed to MBZ, dabrafenib (D), trametinib (T), or combinations of T+D or MBZ+trametinib. A) BAK (BRAFWT/NRASQ61K); B) BUL (BRAFWT/NRASQ61K); and C.) STU (BRAFV600K/NRASWT) melanoma cells were exposed to the indicated concentrations of MBZ, D, T, T+D or MBZ+trametinib (T+MBZ) for 72 h, and subjected to XTT cell viability assays, as described in the Examples. Error bars represent mean±SD for triplicates. […] The results shown are based on a single experiment in triplicate; and repeated in three independent experiments with essentially the same results.
# MBZ, dabrafenib, and trametinib were purchased from Sigma-Aldrich (St. Louis, Mo.) and ActiveBiochem (Maplewood, N.J.), respectively. 5×10^3 viable cells per well were plated in 96-well dishes and allowed to recover for 12 h prior to drug treatment. Cells in triplicate wells were treated for up to 72 h (based on initial time course experiments showing maximal effects at that time point) with different concentrations of trametinib, dabrafenib, or MBZ alone, or a combination of MBZ and trametinib. Negative controls were exposed to vehicle DMSO in the same volumes. Cell viability was assessed by an XTT assay, according to a manufacturer's specifications (Biotium Inc (Fremont, Calif.)). Reduced XTT was measured by absorbance at 490 nm on a PerkinElmer Victor 3 (Duluth, Ga.) plate reader. […]
# [2] = system: BAK (BRAFWT/NRASQ61K) melanoma xenografts; test: Mouse xenografting, tumor growth; assay type: in vivo, athymic mice; settings: oral gavage; MBZ 40 mg/kg/qad, trametinib 0.1 or 3 mg/kg/qd
# [3] = system: MEK/ERK pathway in BAK cells; test: Immunoblot analysis of cultured cells; assay type: cell-based, Human; settings: 100 nM; combination undetectable by 30 min
# Text: FIGS. 5A-H are RPPA (A) and immunoblot (B-E) analyses that reveal suppression of the MAPK pathway, including ERK and its downstream substrates in melanoma cells exposed to MBZ+trametinib. A. […] Cell extracts derived at indicated times were subjected to RPPA analysis, and unsupervised hierarchal clustering was used to generate a heat map as described in Materials and Methods. […] F)-H) Immunoblot experiments were repeated with an additional melanoma cell line BUL, which harbors the same NRASQ61K mutation. […] All immunoblots were then reprobed with GAPDH as loading control. SDS-PAGE and transfer of separated proteins to nitrocellulose membranes were performed according to standard procedures. Membranes were stained with Ponceau S (0.1%) to verify equal loading and transfer of proteins, and then incubated with antibodies specific for pERK1/2 T202/Y204, pMEK1/2 S217/221, pBAD S-112, total BAD, total ERK1/2, total MEK1/2, BCL2 (Santa Cruz Biotech), BCLXL (Santa Cruz Biotech (Santa Cruz, Calif.)), cleaved PARP (Cell Signaling (Danvers, Mass.)), or GAPDH (Abeam (Cambridge, UK); loading control). Immune complexes were detected by incubation with appropriate horseradish peroxidase-conjugated antibodies to mouse or rabbit IgG (1:3000) and enhanced chemiluminescence (Pierce, Rockford, Ill.).
# [4] = system: MEK1/2 and ERK1/2 phosphorylation; test: Immunoblot analysis of xenograft tumor extracts; assay type: in vivo, athymic mice; settings: tumors collected at termination of experiment; combination is HDT+MBZ
# Experimental: Athymic mice were injected with 3×10^6 BAK melanoma cells, and tumors were allowed to grow to a volume of 100 mm^3. […] Time 0 is the tumor volume on the first day of treatment; tumor sizes were normalized to their size at time 0 of drug treatment. B) Mice were weighed every other day and body weights (g) plotted over time. Data from four experiments were combined for statistical analysis, to compare every mouse from each treatment group. The total mice for all experiments included vehicle control (n=13), LDT (n=12), MBZ (n=12), HDT (n=12), LDT+MBZ (n=12), and HDT+MBZ (n=15). The results are shown as the mean (+SD) of tumor volume in each group. C) and D) ERK and MEK phosphorylation was suppressed in large (C) or small (D) tumor xenografts from mice treated with T+MBZ. Tumor extracts were derived from xenografts, then subjected to immunoblot analysis using antibodies specific for total BRAT, phospho-BRAF, ERK1/2, phospho-ERK1/2, total MEK1/2, phospho-MEK1/2, or GAPDH as a loading control. SDS-PAGE and transfer of separated proteins to nitrocellulose membranes were performed according to standard procedures. […] Immune complexes were detected by incubation with appropriate horseradish peroxidase-conjugated antibodies to mouse or rabbit IgG (1:3000) and enhanced chemiluminescence (Pierce, Rockford, Ill.).
# [5] = system: MEK/ERK pathway in BAK NRASQ61K melanoma cells; test: Reverse-phase protein array (RPPA); assay type: cell-based, Human; settings: 10 nM or 100 nM; 1, 8 or 24 h
# [6] = system: BAK and BUL melanoma cells; test: Cell cycle analysis (PI staining, FACS); assay type: cell-based, Human; settings: 100 nM, all time points
SMILES,concentration at which significant growth inhibition was observed [1] [µM],tumor growth [2],ERK1/2 (T202/Y204) phosphorylation [3],MEK1/2 and ERK1/2 phosphorylation in tumors [4],phosphorylation of proteins associated with the MEK/ERK pathway [5],percentage of cells in S phase [6]
CC(C)(C)c1nc(-c2cccc(NS(=O)(=O)c3c(F)cccc3F)c2F)c(-c2ccnc(N)n2)s1 [dabrafenib],≥ 1,–,–,–,–,–
CC(=O)Nc1cccc(-n2c(=O)n(C3CC3)c(=O)c3c(Nc4ccc(I)cc4F)n(C)c(=O)c(C)c32)c1 [trametinib],≥ 0.001,did not show any significant tumor-suppressive effects,diminished,suppress MEK and ERK phosphorylation,down-regulated,decreased the percentage of cells in S phase
